According to publication doi:10.1101/2020.06.07.139030:
No constants are given. Whether binding was seen depends on the method and setting. In cells and extracts the contact can be indirect. Some results given as binding are weak or reduced against the parent protein; the word gives no strength. Where a sequence is shown, tags or fusion partners need not be part of it.

By UniProt entry, the sequences of proteins in these tests, tags left out.
UniProt Q8R3S6, whole entry: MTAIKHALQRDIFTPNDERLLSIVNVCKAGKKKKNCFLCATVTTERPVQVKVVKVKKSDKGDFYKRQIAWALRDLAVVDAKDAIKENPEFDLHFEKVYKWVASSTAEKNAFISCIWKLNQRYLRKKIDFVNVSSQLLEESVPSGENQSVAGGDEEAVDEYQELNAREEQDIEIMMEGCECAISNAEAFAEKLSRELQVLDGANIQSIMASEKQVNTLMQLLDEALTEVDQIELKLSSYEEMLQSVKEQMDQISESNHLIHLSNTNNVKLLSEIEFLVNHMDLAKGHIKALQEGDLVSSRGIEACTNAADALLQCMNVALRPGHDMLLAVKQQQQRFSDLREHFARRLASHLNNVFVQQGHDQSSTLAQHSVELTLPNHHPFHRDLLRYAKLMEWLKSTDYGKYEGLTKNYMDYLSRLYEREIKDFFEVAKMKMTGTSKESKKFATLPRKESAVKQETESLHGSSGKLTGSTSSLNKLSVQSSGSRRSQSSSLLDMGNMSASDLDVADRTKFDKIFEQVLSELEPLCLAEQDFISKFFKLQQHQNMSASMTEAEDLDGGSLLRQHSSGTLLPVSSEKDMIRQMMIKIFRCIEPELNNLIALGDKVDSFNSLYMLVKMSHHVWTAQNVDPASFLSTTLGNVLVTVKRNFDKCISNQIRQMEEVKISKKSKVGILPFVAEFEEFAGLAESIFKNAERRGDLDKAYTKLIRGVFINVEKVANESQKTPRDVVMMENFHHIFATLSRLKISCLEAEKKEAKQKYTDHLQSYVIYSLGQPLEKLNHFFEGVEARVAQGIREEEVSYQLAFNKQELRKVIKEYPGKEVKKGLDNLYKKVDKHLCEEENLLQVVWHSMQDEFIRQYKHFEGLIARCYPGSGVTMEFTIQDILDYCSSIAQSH

T1: HA-tagged mouse STX2 (mouse) (UniProt Q00262)
T1 sequence: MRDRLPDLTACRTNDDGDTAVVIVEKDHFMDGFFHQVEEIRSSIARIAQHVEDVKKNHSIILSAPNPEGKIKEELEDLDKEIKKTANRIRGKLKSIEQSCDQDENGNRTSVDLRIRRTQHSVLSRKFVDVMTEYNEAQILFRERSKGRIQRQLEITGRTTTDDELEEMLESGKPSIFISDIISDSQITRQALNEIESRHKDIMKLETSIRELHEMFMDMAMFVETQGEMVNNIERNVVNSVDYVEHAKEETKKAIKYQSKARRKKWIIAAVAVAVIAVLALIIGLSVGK


Molecular target: T1, HA-tagged mouse STX2 (mouse)
Assay: co-IP

Row | Molecule | binding
1 | FLAG-tagged mouse EXOC1 (from UniProt Q8R3S6 1-894) | binds
2 | Myc-tagged mouse SNAP23 (protein, UniProt O09044 1-210) MDNLSPEEVQLRAHQVTDESLESTRRILGLAIESQDAGIKTITMLDEQGEQLNRIEEGMDQINKDMREAEKTLTELNKCCGLCICPCNRTKNFESGKNYKATWGDGGDNSPSNVVSKQPSRITNGQPQQTTGAASGGYIKRITNDAREDEMEENLTQVGSILGNLKNMALDMGNEIDAQNQQIQKITEKADTNKNRIDIANTRAKKLIDS | binds
